Drawing on the supplement of paper PMC8090911, this text covers perinuclear lysosome accumulation for 76 compounds.

Where a name gives a salt, the structure may show the parent alone. This is one part of the list. Single values are uncertain, as repeats are few or missing.

This assay concerns p95-ErbB2-MCF7. As to the kind of experiment: perinuclear lysosome accumulation (PNLA, size of LAMP2 puncta), robust Z-score vs plate median; higher = more perinuclear lysosome accumulation (reversal of invasive lysosome distribution). The note with it: 5 µM; 24 h.
In the case of `NS(=O)(=O)c1cc2c(cc1C(F)(F)F)NCNS2(=O)=O` [Hydroflumethiazide], the perinuclear lysosome accumulation is -0.845.
Regarding `CS(=O)(=O)OCCCCOS(C)(=O)=O` [Busulfan], the perinuclear lysosome accumulation is -0.454.
Consider `Cc1c(NC(=O)c2cccnc2)c(=O)n(-c2ccccc2)n1C` [Nifenazone], for which the perinuclear lysosome accumulation was determined as 2.13.
As for `N[C@@H](Cc1cc(I)c(Oc2ccc(O)c(I)c2)c(I)c1)C(=O)O` [Liothyronine], the perinuclear lysosome accumulation was -1.36.
Turning to `CN1CCC(=C2c3ccccc3Sc3ccccc32)CC1` [Pimethixene maleate], the perinuclear lysosome accumulation came out at 1.97.
For `C#C[C@]1(O)CC[C@H]2[C@@H]3CCC4=CCCC[C@@H]4[C@H]3CC[C@@]21C` [Lynestrenol], the perinuclear lysosome accumulation is -0.867.
Consider `C[C@H](CCC(=O)O)[C@H]1CC[C@H]2[C@@H]3[C@@H](O)C[C@@H]4C[C@H](O)CC[C@]4(C)[C@H]3CC[C@]12C` [Urosiol], for which the perinuclear lysosome accumulation was 0.986.
Take `O=C(CCCN1CCN(c2ccccn2)CC1)c1ccc(F)cc1` [Azaperone]: the perinuclear lysosome accumulation was 0.22.
As to `NC[C@@H]1O[C@@H](O[C@H]2[C@H](O)[C@@H](O[C@H]3O[C@H](CO)[C@@H](O)[C@H](N)[C@H]3O)[C@H](N)C[C@@H]2N)[C@@H](O)[C@H](O)[C@H]1O` [Kanamycin A sulfate], the perinuclear lysosome accumulation was -0.353.
Regarding `CC1CC(OC(=O)c2ccccc2O)CC(C)(C)C1` (stereo unspecified) [Homosalate], the perinuclear lysosome accumulation was determined as 0.151.
For the compound `COC(=O)C1=C(C#N)NC(C)=C(C(=O)OC(C)C)C1c1cccc([N+](=O)[O-])c1` (stereo unspecified) [Nilvadipine], the perinuclear lysosome accumulation is -0.0506.
Consider `OCCN(CCO)c1nc(N2CCCCC2)c2nc(N(CCO)CCO)nc(N3CCCCC3)c2n1` [Dipyridamole], for which the perinuclear lysosome accumulation worked out at 0.459.
In the case of `O=C(O)c1ccccc1C(=O)Nc1ccc(S(=O)(=O)Nc2nccs2)cc1` [Phthalylsulfathiazole], the perinuclear lysosome accumulation was -0.339.
As for `CN1CCN(C(c2ccccc2)c2ccccc2)CC1` [Cyclizine hydrochloride], the figure is 0.295; as for `CN(C)CCOC(c1ccccc1)c1ccccc1.Cn1c(=O)c2[nH]c(Cl)nc2n(C)c1=O` [Dimenhydrinate], 0.473; as for `Clc1ccc2c(c1)CCc1cccnc1C2=C1CCNCC1` [Desloratadine], 2.15.
As for `O=C1NCC2(CCN(CCc3ccccc3)CC2)O1` [Fenspiride hydrochloride], the figure is -1.26.
As for `CCCOc1ccc2[nH]c(NC(=O)OC)nc2c1` [Oxibendazol], the figure is -1.24; as for `O=C(c1ccc(F)cc1)C1CCN(CCn2c(=O)[nH]c3ccccc3c2=O)CC1` [Ketanserin tartrate hydrate], -1.61.
Turning to `CCN(CC)C(=O)c1ccc(O)c(OC)c1` [Ethamivan], the perinuclear lysosome accumulation was -0.67.
With `CN(C)C(=N)NC(=N)N` [Metformin hydrochloride], the perinuclear lysosome accumulation was -0.54.
`NCCCCCC(=O)O` [Aminocaproic acid]: the perinuclear lysosome accumulation is 0.591.
As for `CNCCc1ccccn1` [Betahistine mesylate], the figure is 0.632; as for `CC=CC(=O)N(CC)c1ccccc1C` [Crotamiton], -2.23.
For the compound `Nc1nc2c(ncn2COC(CO)CO)c(=O)[nH]1` [Ganciclovir], the perinuclear lysosome accumulation was 0.129.
As for `Clc1cccc(Cl)c1NC1=NCCN1` [Clonidine hydrochloride], the perinuclear lysosome accumulation was determined as 0.512.
Take `CO[C@H]1/C=C/O[C@@]2(C)Oc3c(C)c(O)c4c(O)c(c5c(nc6cc(C)ccn65)c4c3C2=O)NC(=O)/C(C)=C\C=C\[C@H](C)[C@H](O)[C@@H](C)[C@@H](O)[C@@H](C)[C@H](OC(C)=O)[C@@H]1C` [Rifaximin]: the perinuclear lysosome accumulation stood at 0.191.
As for `CC(=O)O[C@]1(C(C)=O)CC[C@H]2[C@@H]3C=C(Cl)C4=CC(=O)CC[C@]4(C)[C@H]3CC[C@@]21C` [Chlormadinone acetate], the figure is 0.483.
Turning to `CCCNC(=O)NS(=O)(=O)c1ccc(Cl)cc1` [Chlorpropamide], the perinuclear lysosome accumulation is 0.0196.
As for `CCN(CC)C(C)CN1c2ccccc2Sc2ccccc21` (stereo unspecified) [Ethopropazine hydrochloride], the perinuclear lysosome accumulation is -1.42.
For `Cn1c(=O)c2c(ncn2CC2OCCO2)n(C)c1=O` [Doxofylline], the perinuclear lysosome accumulation was 1.25.
As for `CN1CCN(CC(=O)N2c3ccccc3C(=O)Nc3cccnc32)CC1` [Pirenzepine dihydrochloride], the perinuclear lysosome accumulation was -0.465.
`COC(=O)Nc1nc2cc(Sc3ccccc3)ccc2[nH]1` [Fenbendazole]: the perinuclear lysosome accumulation was determined as 3.37.
For `CN(CCCCCCCCCCN(C)C(=O)Oc1cccc([N+](C)(C)C)c1)C(=O)Oc1cccc([N+](C)(C)C)c1` [Demecarium bromide], the perinuclear lysosome accumulation was found to be 0.00915.
With `CC(=O)N(CC(O)CO)c1c(I)c(C(=O)NCC(O)CO)c(I)c(C(=O)NCC(O)CO)c1I` (stereo unspecified) [Iohexol], the perinuclear lysosome accumulation was -1.9.
Turning to `c1ccc(-c2ccc(C(c3ccccc3)n3ccnc3)cc2)cc1` (stereo unspecified) [Bifonazole], the perinuclear lysosome accumulation is -0.0292.
The figure for `Oc1c(Cl)cc(Cl)c2cccnc12` [Chloroxine] is -2.18; for `CN(C)CCC(c1ccc(Br)cc1)c1ccccn1` (stereo unspecified) [Brompheniramine maleate] it is -0.189.
As to `CC(=O)OC[C@H]1O[C@@H]([S-])[C@H](OC(C)=O)[C@@H](OC(C)=O)[C@@H]1OC(C)=O.CCP(CC)CC.[Au+]` [Auranofin], the perinuclear lysosome accumulation turned out to be 6.05.
Turning to `CCC1(c2ccccc2)C(=O)NCNC1=O` [Primidone], the perinuclear lysosome accumulation came out at 0.0431.
With `Nc1ncnc2c1ncn2[C@@H]1O[C@H](CO)[C@@H](O)[C@@H]1O` [Vidarabine], the perinuclear lysosome accumulation was -1.97.
Consider `C[C@@](Cc1ccc(O)c(O)c1)(NN)C(=O)O` [Carbidopa], for which the perinuclear lysosome accumulation came to 1.51.
For the compound `CCOc1nc2cccc(C(=O)O)c2n1Cc1ccc(-c2ccccc2-c2nnn[nH]2)cc1` [Candesartan], the perinuclear lysosome accumulation stood at 0.59.
Consider `CC(=O)Nc1nnc(S(N)(=O)=O)s1` [Acetazolamide], for which the perinuclear lysosome accumulation turned out to be 0.644.
As to `Cc1cc2cc3c(C)cc(=O)oc3c(C)c2o1` [Trioxsalen], the perinuclear lysosome accumulation was -0.207.
Regarding `Clc1ccc2nsnc2c1NC1=NCCN1` [Tizanidine HCl], the perinuclear lysosome accumulation is -0.0785.
Regarding `CCCCOc1cc(C(=O)OCCN(CC)CC)ccc1N` [Benoxinate hydrochloride], the perinuclear lysosome accumulation is 1.85.
As to `C[C@]12CC[C@@H]3c4ccc(O)cc4C[C@@H](CCCCCCCCC[S+]([O-])CCCC(F)(F)C(F)(F)F)[C@H]3[C@@H]1CC[C@@H]2O` (stereo partly specified) [Fulvestrant], the perinuclear lysosome accumulation is -0.55.
Take `CO/N=C(\C(=O)N[C@@H]1C(=O)N2C(C(=O)O)=C(COC(C)=O)CS[C@H]12)c1csc(N)n1` [Cefotaxime sodium salt]: the perinuclear lysosome accumulation came to 0.0858.
For `Nc1ccc(S(=O)(=O)Nc2nccs2)cc1` [Sulfathiazole], the perinuclear lysosome accumulation was -0.956.
With `CC(CNC1CCCCC1)OC(=O)c1ccccc1` (stereo unspecified) [Hexylcaine hydrochloride], the perinuclear lysosome accumulation is -2.11.
With `Cc1ccc(-c2cc(C(F)(F)F)nn2-c2ccc(S(N)(=O)=O)cc2)cc1` [Celecoxib], the perinuclear lysosome accumulation was 0.673.
For the compound `C[C@@H]1CCC[C@H](C)N1NC(=O)c1ccc(Cl)c(S(N)(=O)=O)c1` [Clopamide], the perinuclear lysosome accumulation was 0.197.
The figure for `CC[C@H]1OC(=O)[C@H](C)[C@@H](O[C@H]2C[C@@](C)(OC)[C@@H](O)[C@H](C)O2)[C@H](C)[C@@H](O[C@@H]2O[C@H](C)C[C@H](N(C)C)[C@H]2O)[C@](C)(O)C[C@@H](C)CN(C)[C@H](C)[C@@H](O)[C@]1(C)O` [Azithromycin] is 0.765.
Consider `CN[C@H]1CC[C@@H](c2ccc(Cl)c(Cl)c2)c2ccccc21` [Sertraline], for which the perinuclear lysosome accumulation amounted to 6.79.
The figure for `CCN(CC)CCNC(=O)c1ccc(N)cc1` [Procainamide hydrochloride] is -0.0544; for `CC(=O)Nc1c(I)c(C(=O)N[C@H]2C(O)O[C@H](CO)[C@@H](O)[C@@H]2O)c(I)c(N(C)C(C)=O)c1I` (stereo partly specified) [Metrizamide] it is 0.488; for `CCOC1O[C@H]([C@@H](COCc2ccccc2)OCc2ccccc2)[C@H](OCc2ccccc2)[C@H]1O` (stereo partly specified) [Tribenoside] it is 0.0937.
The figure for `CNCC(O)c1ccc(O)c(O)c1` (stereo unspecified) [Racepinephrine HCl] is 0.2.
Take `N[C@H]1CONC1=O` [(S)-(-)-Cycloserine]: the perinuclear lysosome accumulation is -0.344.
Regarding `CCN(CC)C(=O)Nc1ccc(OCC(O)CNC(C)(C)C)c(C(C)=O)c1` (stereo unspecified) [Celiprolol HCl], the perinuclear lysosome accumulation came out at 1.45.
As for `COc1cc2nc(N3CCN(C(=O)C4COc5ccccc5O4)CC3)nc(N)c2cc1OC` (stereo unspecified) [Doxazosin mesylate], the perinuclear lysosome accumulation amounted to 1.74.
Consider `CCN(CCCCOC(=O)c1ccc(OC)c(OC)c1)C(C)Cc1ccc(OC)cc1` (stereo unspecified) [Mebeverine hydrochloride], for which the perinuclear lysosome accumulation was -0.149.
Regarding `Cc1cc(C(C)(C)C)cc(C)c1CC1=NCCN1` [Xylometazoline hydrochloride], the perinuclear lysosome accumulation is -1.42.
The figure for `CCN(CC)CCOCCOC(=O)C1(c2ccccc2)CCCC1` [Carbetapentane citrate] is -0.511.
For `Cc1c(N)c(=O)n(-c2ccccc2)n1C` [Ampyrone], the perinuclear lysosome accumulation was -3.07.
`C=CCOc1ccccc1OCC(O)CNC(C)C` (stereo unspecified) [Oxprenolol hydrochloride]: the perinuclear lysosome accumulation worked out at 1.16.
`NC[C@H]1O[C@H](O[C@H]2[C@H](O)[C@@H](O[C@H]3O[C@H](CO)[C@@H](O)[C@H](N)[C@H]3O)[C@H](N)C[C@@H]2N)[C@H](N)C[C@@H]1O` [Tobramycin]: the perinuclear lysosome accumulation turned out to be 0.422.
As for `CCOC(=O)/C=C(C)/C=C/C=C(C)/C=C/c1c(C)cc(OC)c(C)c1C` [Etretinate], the perinuclear lysosome accumulation is 1.19.
`CN1CCN2c3ncccc3Cc3ccccc3C2C1` (stereo unspecified) [Mirtazapine]: the perinuclear lysosome accumulation was -0.223.
Take `Cc1cc(C)nc(NS(=O)(=O)c2ccc(N)cc2)n1` [Sulfamethazine sodium salt]: the perinuclear lysosome accumulation was -1.25.
As for `COc1cc(NS(=O)(=O)c2ccc(N)cc2)ncn1` [Sulfamonomethoxine], the figure is 0.0411.
With `CC1(C)O[C@@H]2C[C@H]3[C@@H]4C[C@H](F)C5=CC(=O)C=C[C@]5(C)[C@@]4(F)[C@@H](O)C[C@]3(C)[C@]2(C(=O)CO)O1` [Fluocinolone acetonide], the perinuclear lysosome accumulation was 0.0292.
For the compound `COC(=O)N/N=C/c1c[n+]([O-])c2ccccc2[n+]1[O-]` [Carbadox], the perinuclear lysosome accumulation was 0.881.
The figure for `CN(C(=O)CN(CCO)CC(=O)N(C)C(C)(C)Cc1ccccc1)C(C)(C)Cc1ccccc1` [Oxethazaine] is -1.37; for `CC(C(O)c1ccc(O)cc1)N1CCC(Cc2ccccc2)CC1` (stereo unspecified) [Ifenprodil tartrate] it is -1.82.
